# The inconclusive results got no clear call from the source; some entries with a clear call stand among them for comparison. Where the call is inconclusive, the potency comes from a doubtful curve fit. Active and inactive are the calls of the source. The calls were made as follows: active = hit-call score of the fitted dose curve at least 0.9, where 1 is the maximum; inconclusive = response in the unintended direction; inactive = score below 0.9.
# By UniProt entry, the sequences of proteins in these tests, tags left out. Where a name states a change or a piece, a line headed by the entry shows the natural chain unless it says otherwise.
# UniProt P49843: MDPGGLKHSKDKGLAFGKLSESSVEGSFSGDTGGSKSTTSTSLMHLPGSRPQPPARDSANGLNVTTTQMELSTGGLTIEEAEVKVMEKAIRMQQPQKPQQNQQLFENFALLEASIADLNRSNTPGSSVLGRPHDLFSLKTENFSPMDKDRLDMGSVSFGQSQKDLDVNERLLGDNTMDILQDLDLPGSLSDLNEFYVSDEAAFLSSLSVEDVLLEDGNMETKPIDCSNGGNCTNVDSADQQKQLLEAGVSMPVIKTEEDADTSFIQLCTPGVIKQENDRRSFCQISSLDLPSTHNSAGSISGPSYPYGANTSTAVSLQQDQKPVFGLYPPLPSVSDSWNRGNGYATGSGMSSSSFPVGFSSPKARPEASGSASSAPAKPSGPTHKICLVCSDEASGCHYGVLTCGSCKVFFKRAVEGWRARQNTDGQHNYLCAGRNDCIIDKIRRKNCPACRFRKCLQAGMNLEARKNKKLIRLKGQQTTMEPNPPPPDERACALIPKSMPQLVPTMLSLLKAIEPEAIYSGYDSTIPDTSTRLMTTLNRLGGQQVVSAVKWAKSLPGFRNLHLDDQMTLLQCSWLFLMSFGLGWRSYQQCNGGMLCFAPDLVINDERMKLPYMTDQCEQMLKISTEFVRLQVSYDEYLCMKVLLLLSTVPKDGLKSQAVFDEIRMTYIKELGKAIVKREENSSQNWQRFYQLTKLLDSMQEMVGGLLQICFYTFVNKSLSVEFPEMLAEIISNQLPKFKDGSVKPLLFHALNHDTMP
# Target: rainbow trout Glucocorticoid Receptor (GR), nr3c1 (gene 100136786) (UniProt P49843)
# Test: ATG_rtGR_EcoTox2: Attagene TRANS-FACTORIAL EcoTox-2 HepG2 Assay for rainbow trout Glucocorticoid Receptor (GR)
# Procedure: ATG_EcoTox2 is a cell-based, multiplexed assay created by modifying the existing Attagene TRANS-FACTORIAL system to include a panel of nuclear receptors from some or all the following species: human (Homo sapiens), african clawed frog (Xenopus laevis), rainbow trout (Oncorhynchus mykiss), japanese medaka (Oryzias latipes), and zebrafish (Danio rerio). The ECOTOX2-FACTORIAL format uses HepG2, a human liver cell line, with measurements taken at 24 hours after chemical dosing in a 24-well plate. ATG_rtGR_EcoTox2 is one of 29 assay components calculated in the ATG_EcoTox2 assay. It is designed to make measurements of mRNA induction, a form of inducible reporter, as detected with fluorescence intensity signals by Reverse transcription polymerase chain reaction (RT-PCR) and Capillary electrophoresis technology.The assay endpoint ATG_rtGR_EcoTox2 was analyzed in the positive analysis fitting direction relative to DMSO as the negative control and baseline of activity. Using a type of inducible reporter, measures of mRNA for gain-of-signal activity can be used to understand the reporter gene at the transcription factor-level as they relate to the gene for glucocorticoid receptor. Furthermore, this assay endpoint can be referred to as a primary readout, because this assay has produced multiple assay endpoints where this one serves a reporter gene function. […]
SMILES,AC50,outcome
O=P(Oc1ccccc1)(Oc1ccccc1)Oc1ccccc1,inconclusive: 50 µM,–
[Cl][Sn]([c]1ccccc1)([c]1ccccc1)[c]1ccccc1,–,inactive

# — PubChem BioAssay AID2284333 (EPA ToxCast)
